Results from paper doi:10.1101/2023.11.22.568357 (bioRxiv, 2023).
These are yes or no findings as the source states them, for the method shown. For some assays here: A result given as binding can be weak or reduced; the word gives no strength. For some assays here: Binding seen in cells or lysates may run through a third protein. For some assays here: Sequences can lack the tags named with a protein.

Experiments:
[1] = target: T1, LRRC4B(36-576)-hFc (human) (UniProt Q9NT99); experiment: ELISA
T1 sequence: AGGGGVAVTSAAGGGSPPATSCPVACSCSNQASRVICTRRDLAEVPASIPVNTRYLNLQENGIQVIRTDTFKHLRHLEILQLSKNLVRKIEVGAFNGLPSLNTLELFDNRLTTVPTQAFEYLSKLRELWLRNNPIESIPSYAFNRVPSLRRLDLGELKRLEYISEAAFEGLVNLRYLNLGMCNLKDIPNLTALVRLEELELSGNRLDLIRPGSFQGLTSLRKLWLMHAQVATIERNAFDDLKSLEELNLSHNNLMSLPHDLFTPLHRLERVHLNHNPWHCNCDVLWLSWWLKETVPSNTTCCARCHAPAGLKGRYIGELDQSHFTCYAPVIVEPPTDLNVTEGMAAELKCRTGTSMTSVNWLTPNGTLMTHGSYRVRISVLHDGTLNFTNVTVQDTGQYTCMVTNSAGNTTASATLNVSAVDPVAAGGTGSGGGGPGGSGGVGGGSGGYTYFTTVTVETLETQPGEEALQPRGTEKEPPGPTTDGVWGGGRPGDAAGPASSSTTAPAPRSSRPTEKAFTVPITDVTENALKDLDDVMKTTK

[2] = target: T2, LRRC4B(498-576)-hFc (human) (UniProt Q9NT99); experiment: ELISA
T2 sequence: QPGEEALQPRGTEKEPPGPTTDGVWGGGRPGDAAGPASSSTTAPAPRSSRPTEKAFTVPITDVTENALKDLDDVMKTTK

[3] = target: T3, FLAG-tagged LRRC4B full-length (36-713) (human) (UniProt Q9NT99); experiment: co-IP
T3 sequence: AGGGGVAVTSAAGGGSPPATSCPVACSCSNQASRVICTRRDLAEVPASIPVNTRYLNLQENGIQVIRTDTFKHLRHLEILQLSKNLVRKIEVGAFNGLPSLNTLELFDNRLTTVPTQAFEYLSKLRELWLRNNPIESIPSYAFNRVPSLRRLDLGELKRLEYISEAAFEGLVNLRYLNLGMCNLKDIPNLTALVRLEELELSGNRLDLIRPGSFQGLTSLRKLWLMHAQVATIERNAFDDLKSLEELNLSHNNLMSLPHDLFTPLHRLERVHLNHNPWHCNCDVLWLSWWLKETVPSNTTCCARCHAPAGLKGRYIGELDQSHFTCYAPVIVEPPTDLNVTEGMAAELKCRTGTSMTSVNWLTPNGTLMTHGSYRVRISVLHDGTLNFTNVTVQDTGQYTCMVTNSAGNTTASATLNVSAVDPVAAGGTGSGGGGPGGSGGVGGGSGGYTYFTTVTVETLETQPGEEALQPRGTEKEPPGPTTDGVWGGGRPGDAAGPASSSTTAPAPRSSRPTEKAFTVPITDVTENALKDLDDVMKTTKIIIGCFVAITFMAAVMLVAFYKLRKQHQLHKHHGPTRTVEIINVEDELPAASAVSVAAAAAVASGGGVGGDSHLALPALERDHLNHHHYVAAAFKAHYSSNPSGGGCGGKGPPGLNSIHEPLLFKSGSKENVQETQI

[4] = target: T4, FLAG-tagged LRRC4B(157-713) (human) (UniProt Q9NT99); experiment: co-IP
T4 sequence: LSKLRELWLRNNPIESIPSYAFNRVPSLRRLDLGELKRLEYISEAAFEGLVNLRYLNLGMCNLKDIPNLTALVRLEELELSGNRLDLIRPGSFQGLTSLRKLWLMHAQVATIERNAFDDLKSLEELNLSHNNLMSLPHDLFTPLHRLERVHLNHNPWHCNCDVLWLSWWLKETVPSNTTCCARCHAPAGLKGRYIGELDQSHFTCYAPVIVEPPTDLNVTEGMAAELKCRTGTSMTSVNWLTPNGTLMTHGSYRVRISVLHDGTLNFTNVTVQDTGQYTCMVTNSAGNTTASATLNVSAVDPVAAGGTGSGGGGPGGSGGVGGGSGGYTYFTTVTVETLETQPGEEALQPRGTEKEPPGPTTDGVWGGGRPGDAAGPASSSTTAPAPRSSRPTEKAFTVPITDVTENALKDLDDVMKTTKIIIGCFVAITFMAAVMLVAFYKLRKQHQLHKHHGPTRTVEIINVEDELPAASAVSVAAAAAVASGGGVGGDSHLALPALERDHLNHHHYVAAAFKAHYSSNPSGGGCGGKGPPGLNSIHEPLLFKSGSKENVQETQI

[5] = target: T5, FLAG-tagged LRRC4B(230-713) (human) (UniProt Q9NT99); experiment: co-IP
T5 sequence: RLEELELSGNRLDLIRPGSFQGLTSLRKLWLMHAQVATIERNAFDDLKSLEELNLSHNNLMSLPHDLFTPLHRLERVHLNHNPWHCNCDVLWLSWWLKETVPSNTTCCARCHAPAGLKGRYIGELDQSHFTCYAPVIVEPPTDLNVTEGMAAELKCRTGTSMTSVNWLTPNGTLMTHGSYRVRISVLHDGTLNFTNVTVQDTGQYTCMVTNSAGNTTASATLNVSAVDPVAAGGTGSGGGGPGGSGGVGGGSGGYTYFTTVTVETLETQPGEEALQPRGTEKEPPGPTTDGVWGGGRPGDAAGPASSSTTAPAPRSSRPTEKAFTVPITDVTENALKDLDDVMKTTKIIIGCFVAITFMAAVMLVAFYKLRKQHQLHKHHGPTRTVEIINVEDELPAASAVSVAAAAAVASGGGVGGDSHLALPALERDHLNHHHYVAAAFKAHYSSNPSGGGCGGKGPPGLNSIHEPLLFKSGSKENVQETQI

[6] = target: T6, FLAG-tagged LRRC4B(36-576) (human) (UniProt Q9NT99); experiment: co-IP
T6 sequence: T1 sequence

[7] = target: T7, FLAG-tagged LRRC4B(364-576) (human) (UniProt Q9NT99); experiment: co-IP
T7 sequence: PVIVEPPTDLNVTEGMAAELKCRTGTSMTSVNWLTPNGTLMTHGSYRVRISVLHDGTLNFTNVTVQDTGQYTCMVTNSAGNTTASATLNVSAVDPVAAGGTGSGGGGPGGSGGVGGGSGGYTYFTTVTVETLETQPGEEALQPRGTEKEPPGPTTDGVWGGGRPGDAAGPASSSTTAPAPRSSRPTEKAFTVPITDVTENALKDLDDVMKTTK

[8] = target: T8, FLAG-tagged LRRC4B(364-713) (human) (UniProt Q9NT99); experiment: co-IP
T8 sequence: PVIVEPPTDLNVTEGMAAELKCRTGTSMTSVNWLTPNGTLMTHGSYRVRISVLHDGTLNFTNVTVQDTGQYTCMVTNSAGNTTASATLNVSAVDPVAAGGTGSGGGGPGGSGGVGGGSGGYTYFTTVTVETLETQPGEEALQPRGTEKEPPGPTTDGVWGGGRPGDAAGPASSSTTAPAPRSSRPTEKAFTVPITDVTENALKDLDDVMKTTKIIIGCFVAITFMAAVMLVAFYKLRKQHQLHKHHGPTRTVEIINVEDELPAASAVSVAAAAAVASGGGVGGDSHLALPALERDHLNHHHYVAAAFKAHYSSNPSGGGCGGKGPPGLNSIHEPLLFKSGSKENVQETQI

[9] = target: T9, FLAG-tagged LRRC4B(453-576) (human) (UniProt Q9NT99); experiment: co-IP
T9 sequence: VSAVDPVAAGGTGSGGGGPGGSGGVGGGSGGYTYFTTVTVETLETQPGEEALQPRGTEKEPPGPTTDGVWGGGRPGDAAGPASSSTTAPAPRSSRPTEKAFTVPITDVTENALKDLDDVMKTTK

[10] = target: T10, FLAG-tagged LRRC4B(453-713) (human) (UniProt Q9NT99); experiment: co-IP
T10 sequence: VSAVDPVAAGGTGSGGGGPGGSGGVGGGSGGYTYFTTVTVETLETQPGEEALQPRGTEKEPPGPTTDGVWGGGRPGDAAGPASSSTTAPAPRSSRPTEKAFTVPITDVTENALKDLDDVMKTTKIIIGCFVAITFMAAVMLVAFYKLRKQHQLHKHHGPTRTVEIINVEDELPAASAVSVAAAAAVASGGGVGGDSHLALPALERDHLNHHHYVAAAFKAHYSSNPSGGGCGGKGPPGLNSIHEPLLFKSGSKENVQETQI

[11] = target: T11, FLAG-tagged LRRC4B(484-576) (human) (UniProt Q9NT99); experiment: co-IP
T11 sequence: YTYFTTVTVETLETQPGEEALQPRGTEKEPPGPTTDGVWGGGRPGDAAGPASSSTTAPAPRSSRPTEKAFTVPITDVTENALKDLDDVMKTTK

## FAM19A5 (wild type, recombinant) (human) (ligand)
[1]
  binding: binds
[2]
  binding: no binding
[3]
  binding: binds
[4]
  binding: binds
[5]
  binding: binds
[6]
  binding: binds
[7]
  binding: binds
[8]
  binding: binds
[9]
  binding: binds
[10]
  binding: binds
[11]
  binding: binds
